Source: PMC3325215
These are yes or no findings as the source states them, for the method shown. Binding seen in cells or lysates may run through a third protein. These calls come from enrichment with a bait or labelling near it, and not all partners need be listed. Sequences can lack the tags named with a protein.

Key:
[1] = biological target: T1, GFP-VIP3 fusion protein (VERNALIZATION … 3, At4g29830) (Arabidopsis thaliana) (UniProt Q9SZQ5); experiment: affinity purification with mass spectrometry; protein extract of 35S::GFP-VIP3 plants fractionated by gel filtration (Superdex 200); pooled smaller (100-200 kDa) fractions incubated 90 min at 4°C with anti-GFP magnetic beads, washed 5 times with protein extraction buffer; stringent conditions
T1 sequence: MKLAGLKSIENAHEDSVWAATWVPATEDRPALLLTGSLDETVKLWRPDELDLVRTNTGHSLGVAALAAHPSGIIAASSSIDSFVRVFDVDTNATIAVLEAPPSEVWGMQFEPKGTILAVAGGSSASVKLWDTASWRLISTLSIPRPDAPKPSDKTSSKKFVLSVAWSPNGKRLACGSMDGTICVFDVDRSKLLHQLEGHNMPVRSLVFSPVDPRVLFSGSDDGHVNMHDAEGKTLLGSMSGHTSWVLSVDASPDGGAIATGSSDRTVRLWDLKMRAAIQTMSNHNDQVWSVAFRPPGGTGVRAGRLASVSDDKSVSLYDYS

[2] = biological target: T1, GFP-VIP3 fusion protein (VERNALIZATION … 3, At4g29830) (Arabidopsis thaliana); experiment: affinity purification with mass spectrometry; direct immunoprecipitation with anti-GFP beads from total protein extract of GFP-VIP3 plants, same conditions, no prior gel filtration

B1: AtSKI3 (At1g76630), Arabidopsis SKI3 homolog (protein, UniProt F4I3Z5 1-1168)
chain: MELEQLKKSVEENPDDSSLQFELGLYLWDNGGDSEKAAEHFVLSAKSDPNNAVAFKYLGHYYSRVTLDLNRAAKCYQRAVLINPNDSDSGEALCDLFDRQGKEILEIAVCRDASEKSPKAFWAFCRLGYIQLHQKKWSEAVQSLQHAIRGYPTMSDLWEALGLAYQRLGMFTAAIKAYGRAIELDETKIFALVESANIFLMLGSYRKGVELFEQALKISPQNISVLYGLASGLLSWSKECINLGAFGWAASLLEDARKAAKASSELASSMSCIWKLHGDIQLTYARCFPWSGGTENSEFTLKTFSDSILSWRSICYSAALSAKASYQRALHLAPWQANVYTDIAITCDLVSSLSDDSDTSSSWKLPEKMVLGALLLECENSEFWVALGCMSDNSALKLHALIRALHLDVSLAVAWAFMGQIFRESDEMKFAKQAFDCARSIDPTLALPWAGSADTYARESTSDEAFESCLRAAQISPLAEFQVGLAWLALLQGNISSPQIFACIEQAVQRSPYYPEPHNLHGLVCEARHNYHTAIASYRLALAAMSIYPESSVKSHAGKVSINLVRSLSKAGRFKESVMECANLKSKGLLDAGGLQIYAFSLWRTGQNDSALSVIRDLAGRISTREKTSIAFPISFICSLLYCISGLDSAITSIQKMPKDFFQSSKISFIVSAIHSLDQSDRLQSIVASTRSYITSQEEIVAMHYLIALSKLLKTGAGDFLGYEKGIAHLSKAIHMYPHSNLIRNLLGYILLAGEGMKDACTASRCCIINVSECANKEGLKSALEVLGGGSVACNVIGNTAPRFSFPTCHCQYLNAPVVVVELQRFLHQEPSNSSVRYLLILNLVQKAREQRFPRQLCRAIERLISVALSDETCSKEGEYKKFQLLLCASEISLQMGNIAESINHARKASSLSLPSSYLFLGHLQLCRAYAANGSTKNMQEEYRACLELKTDSNIGWICLKLIESQYNLEPDANLLEMSLQECSSQKKNSWKEWMAVYSLARGLDSTGKKDFFSAEEFLAQACSLLNSESCLLLCHGAVCMELARQSNDSQFLSLAVKSLSKVQASSLFPLPIVYTLLAQAHGSLGSKEKWEKNLRLEWFCWPPEMRPAEVYFQMHILARQSEDRPETTSGIENYQSPEKWVIRAIHTDPSCRRYWKVLDKLVQHPMS
binding [1]: binds
binding [2]: binds
